± gives the standard deviation of the averaged measurements. Only a part is listed here, and it is no random draw.
Compound: Nc1ncnc2c1ncn2[C@@H]1O[C@H](COP(=O)(O)OP(=O)(O)OP(=O)(O)O)[C@@H](O)[C@H]1O [adenosine triphosphate]
Assay: NP40-soluble protein abundance relative to vehicle (solubility fold change) (ratio); higher = more soluble protein in presence of ATP
Summary of the method: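 Across three independent experiments, values are fold changes against the detergent-processed vehicle for each replicate, based on vsn-normalised intensities. The samples were Jurkat crude lysate treated with eight concentrations (0.1 to 10 mM) for 10 min at room temperature and then 3 min at 37 °C. Lysate was solubilised with 0.8% NP40 and benzonase, ultracentrifuged, and the supernatant analysed by TMT-labelled LC-MS/MS.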

By UniProt entry, the sequences of proteins in these tests, tags left out. Where a name states a change or a piece, a line headed by the entry shows the natural chain unless it says otherwise.
UniProt Q14696: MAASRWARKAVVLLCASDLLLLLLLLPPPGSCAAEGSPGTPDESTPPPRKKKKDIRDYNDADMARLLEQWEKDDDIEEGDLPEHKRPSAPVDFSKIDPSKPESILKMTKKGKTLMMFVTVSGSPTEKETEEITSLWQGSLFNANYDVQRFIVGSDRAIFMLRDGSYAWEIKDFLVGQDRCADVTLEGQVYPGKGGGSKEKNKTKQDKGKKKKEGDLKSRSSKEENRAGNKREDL
UniProt Q2TAA5: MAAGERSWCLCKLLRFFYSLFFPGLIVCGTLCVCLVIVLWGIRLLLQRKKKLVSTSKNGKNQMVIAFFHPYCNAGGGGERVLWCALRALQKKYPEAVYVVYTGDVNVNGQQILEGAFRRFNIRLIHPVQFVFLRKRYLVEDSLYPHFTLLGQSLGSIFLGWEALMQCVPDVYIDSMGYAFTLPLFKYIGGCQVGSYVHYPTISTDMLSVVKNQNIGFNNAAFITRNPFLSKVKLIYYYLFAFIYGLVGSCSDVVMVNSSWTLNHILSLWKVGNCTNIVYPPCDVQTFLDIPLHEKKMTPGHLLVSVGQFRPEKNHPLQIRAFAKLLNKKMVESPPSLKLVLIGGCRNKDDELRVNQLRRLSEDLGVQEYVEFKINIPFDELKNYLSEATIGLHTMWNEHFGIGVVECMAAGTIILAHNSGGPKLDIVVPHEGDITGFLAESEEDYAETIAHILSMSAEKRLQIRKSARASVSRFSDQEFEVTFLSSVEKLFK
UniProt Q15173: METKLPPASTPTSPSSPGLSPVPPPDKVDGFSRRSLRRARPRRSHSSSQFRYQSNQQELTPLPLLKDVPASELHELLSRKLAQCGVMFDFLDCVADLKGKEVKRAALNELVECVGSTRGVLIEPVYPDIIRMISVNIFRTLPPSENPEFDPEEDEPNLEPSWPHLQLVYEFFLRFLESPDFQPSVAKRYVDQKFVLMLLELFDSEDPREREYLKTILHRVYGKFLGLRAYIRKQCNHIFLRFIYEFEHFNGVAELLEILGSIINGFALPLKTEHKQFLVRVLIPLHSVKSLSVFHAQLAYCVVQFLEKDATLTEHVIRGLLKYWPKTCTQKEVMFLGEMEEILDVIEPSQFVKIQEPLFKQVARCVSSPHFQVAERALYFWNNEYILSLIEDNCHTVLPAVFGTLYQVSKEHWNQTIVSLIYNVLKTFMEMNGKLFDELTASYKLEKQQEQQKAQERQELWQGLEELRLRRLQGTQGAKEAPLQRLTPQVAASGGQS
UniProt Q15118, whole entry, looked up: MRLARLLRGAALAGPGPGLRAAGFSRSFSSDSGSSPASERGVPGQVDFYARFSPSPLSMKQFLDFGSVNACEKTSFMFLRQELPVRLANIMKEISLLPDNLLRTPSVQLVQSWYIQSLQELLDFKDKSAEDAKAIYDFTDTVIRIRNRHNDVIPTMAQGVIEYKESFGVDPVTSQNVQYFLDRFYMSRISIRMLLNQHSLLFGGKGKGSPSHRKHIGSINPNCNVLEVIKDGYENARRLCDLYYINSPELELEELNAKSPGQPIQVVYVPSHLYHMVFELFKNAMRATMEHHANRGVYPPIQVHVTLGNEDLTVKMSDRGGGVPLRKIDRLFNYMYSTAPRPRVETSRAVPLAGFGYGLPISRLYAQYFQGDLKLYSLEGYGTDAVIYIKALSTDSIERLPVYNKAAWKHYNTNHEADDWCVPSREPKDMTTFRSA
UniProt Q15046, whole entry, looked up: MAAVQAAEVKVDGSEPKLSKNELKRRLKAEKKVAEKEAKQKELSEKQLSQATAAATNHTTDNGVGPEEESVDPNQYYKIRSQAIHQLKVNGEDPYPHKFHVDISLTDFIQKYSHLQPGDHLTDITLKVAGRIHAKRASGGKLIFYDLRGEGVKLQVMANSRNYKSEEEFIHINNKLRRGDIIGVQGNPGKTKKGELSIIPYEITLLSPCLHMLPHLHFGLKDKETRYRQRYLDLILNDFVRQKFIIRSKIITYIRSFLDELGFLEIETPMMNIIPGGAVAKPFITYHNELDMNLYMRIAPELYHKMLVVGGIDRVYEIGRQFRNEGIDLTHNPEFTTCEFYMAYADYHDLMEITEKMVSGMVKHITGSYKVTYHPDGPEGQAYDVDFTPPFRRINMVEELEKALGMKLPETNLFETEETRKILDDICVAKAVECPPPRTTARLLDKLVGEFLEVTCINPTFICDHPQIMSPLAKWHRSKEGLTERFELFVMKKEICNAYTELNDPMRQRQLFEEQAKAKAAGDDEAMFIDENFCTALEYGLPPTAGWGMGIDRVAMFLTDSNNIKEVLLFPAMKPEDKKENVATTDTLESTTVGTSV
UniProt Q16352: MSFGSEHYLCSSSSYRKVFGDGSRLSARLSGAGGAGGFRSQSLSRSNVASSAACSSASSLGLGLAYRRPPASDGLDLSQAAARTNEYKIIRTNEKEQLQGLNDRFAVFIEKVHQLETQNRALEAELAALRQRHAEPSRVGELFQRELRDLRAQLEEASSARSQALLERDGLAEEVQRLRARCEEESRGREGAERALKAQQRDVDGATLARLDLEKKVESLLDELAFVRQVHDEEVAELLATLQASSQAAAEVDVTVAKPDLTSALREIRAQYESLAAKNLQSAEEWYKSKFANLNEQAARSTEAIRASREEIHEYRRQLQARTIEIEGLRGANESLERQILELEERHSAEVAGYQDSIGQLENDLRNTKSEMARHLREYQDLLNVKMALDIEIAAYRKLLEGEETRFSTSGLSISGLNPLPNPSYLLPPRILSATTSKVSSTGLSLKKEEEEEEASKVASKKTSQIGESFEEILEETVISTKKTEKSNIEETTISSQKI
UniProt Q29RF7: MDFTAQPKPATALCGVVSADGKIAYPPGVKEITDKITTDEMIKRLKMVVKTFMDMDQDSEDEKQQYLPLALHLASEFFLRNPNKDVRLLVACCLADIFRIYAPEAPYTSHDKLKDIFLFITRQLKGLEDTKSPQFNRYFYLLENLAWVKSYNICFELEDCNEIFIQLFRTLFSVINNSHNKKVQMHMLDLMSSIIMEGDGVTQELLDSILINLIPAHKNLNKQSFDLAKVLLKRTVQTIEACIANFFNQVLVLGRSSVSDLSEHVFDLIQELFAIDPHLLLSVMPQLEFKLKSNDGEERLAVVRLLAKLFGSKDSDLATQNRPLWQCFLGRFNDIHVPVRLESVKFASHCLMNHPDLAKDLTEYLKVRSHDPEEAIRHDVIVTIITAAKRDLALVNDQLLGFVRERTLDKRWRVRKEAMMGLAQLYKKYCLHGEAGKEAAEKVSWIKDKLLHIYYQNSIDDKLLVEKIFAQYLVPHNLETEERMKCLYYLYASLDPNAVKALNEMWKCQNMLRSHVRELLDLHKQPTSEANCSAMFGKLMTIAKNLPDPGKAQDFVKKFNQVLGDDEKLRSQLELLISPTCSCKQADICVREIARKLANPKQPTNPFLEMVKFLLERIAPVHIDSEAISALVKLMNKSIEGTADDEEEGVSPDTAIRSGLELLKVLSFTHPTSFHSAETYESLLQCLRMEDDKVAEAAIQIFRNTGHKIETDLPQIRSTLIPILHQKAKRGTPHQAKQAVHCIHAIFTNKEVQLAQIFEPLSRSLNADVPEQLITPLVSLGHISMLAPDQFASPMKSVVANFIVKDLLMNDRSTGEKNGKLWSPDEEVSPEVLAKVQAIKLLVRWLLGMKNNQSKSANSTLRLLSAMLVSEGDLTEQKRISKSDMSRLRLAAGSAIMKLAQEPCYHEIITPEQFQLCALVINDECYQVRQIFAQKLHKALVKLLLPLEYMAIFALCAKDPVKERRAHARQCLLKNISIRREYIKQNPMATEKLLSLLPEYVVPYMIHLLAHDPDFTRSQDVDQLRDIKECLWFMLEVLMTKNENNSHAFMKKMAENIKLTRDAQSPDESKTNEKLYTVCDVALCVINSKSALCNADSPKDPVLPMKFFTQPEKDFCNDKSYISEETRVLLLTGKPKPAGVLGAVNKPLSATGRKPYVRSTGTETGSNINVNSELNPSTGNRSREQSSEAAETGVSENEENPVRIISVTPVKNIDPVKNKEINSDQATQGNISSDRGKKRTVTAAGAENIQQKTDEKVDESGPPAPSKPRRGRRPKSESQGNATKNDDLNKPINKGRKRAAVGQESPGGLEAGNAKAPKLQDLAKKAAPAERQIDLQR
UniProt Q14680: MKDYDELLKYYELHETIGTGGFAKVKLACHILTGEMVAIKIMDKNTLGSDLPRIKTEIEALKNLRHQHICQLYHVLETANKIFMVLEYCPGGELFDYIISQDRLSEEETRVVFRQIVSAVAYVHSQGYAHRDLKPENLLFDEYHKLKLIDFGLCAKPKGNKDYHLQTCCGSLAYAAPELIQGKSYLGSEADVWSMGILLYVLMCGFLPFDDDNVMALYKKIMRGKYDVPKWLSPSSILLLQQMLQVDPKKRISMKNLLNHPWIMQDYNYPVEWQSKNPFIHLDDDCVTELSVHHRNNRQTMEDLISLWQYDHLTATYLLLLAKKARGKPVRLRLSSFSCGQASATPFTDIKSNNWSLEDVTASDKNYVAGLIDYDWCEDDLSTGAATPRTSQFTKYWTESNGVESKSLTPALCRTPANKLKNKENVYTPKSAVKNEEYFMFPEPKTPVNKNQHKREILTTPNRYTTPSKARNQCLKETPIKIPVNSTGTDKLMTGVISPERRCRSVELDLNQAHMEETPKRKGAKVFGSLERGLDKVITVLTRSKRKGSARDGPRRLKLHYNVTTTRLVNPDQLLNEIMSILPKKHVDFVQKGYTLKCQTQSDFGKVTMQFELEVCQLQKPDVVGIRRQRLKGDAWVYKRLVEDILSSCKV
UniProt Q27J81, whole entry: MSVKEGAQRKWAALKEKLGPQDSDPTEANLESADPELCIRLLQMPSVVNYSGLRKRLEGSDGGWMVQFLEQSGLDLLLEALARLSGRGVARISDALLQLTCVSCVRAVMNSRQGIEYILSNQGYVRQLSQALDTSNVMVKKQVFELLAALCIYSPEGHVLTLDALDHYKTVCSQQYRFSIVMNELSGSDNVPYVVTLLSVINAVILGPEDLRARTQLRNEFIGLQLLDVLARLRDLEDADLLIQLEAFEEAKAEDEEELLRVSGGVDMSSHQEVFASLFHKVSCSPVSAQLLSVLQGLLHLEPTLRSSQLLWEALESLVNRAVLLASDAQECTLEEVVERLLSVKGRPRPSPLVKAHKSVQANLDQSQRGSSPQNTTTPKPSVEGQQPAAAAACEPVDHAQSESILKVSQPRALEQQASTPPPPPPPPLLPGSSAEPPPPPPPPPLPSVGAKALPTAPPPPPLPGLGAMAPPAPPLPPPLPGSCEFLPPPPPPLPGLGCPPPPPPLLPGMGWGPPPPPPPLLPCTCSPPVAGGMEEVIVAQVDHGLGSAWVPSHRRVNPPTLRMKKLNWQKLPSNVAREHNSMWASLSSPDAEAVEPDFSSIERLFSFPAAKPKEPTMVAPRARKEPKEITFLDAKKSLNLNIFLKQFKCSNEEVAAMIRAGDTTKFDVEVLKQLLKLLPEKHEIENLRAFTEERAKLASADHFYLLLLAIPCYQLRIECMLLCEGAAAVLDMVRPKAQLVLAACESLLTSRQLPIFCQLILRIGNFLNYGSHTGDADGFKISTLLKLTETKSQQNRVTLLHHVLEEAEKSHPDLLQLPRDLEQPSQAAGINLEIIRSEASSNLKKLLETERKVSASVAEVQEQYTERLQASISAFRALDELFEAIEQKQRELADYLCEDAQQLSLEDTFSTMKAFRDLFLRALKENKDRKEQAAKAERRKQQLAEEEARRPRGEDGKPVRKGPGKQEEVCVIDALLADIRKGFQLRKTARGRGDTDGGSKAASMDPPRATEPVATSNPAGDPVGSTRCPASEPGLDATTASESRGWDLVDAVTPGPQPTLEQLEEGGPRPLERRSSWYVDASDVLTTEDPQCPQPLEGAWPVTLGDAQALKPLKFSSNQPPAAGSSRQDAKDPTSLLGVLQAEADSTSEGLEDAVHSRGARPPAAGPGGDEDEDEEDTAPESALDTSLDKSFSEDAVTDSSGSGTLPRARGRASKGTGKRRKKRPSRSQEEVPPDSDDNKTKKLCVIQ
UniProt Q14738, whole entry: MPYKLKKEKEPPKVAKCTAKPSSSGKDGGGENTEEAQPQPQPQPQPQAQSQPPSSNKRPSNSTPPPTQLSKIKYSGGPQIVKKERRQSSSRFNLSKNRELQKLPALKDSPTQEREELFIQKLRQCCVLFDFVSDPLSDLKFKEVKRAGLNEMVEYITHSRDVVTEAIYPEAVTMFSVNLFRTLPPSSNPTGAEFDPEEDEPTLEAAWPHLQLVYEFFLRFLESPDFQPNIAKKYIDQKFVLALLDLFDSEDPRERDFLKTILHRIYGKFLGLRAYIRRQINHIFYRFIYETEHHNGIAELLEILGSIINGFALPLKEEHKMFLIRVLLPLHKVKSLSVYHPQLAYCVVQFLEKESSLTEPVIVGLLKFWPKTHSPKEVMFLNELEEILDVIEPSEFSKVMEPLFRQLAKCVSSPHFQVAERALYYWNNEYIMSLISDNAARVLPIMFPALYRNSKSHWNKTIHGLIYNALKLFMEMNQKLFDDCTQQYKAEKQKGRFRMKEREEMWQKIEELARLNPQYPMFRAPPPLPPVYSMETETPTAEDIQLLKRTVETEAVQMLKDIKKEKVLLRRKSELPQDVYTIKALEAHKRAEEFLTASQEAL

**Q.** Which NP40-soluble protein abundance (concentration: 1mM) does the source give for UniProt Q14696 here?
**A.** 0.961 ± 0.035

**Q.** And the NP40-soluble protein abundance (concentration: 2mM)?
**A.** 0.941 ± 0.021

**Q.** What about the NP40-soluble protein abundance (concentration: 4mM) of the same target?
**A.** 0.927 ± 0.017

**Q.** And the NP40-soluble protein abundance (concentration: 6mM)?
**A.** 0.997 ± 0.036

**Q.** What about the NP40-soluble protein abundance (concentration: 8mM) of the same target?
**A.** 0.924 ± 0.046

**Q.** What about the NP40-soluble protein abundance (concentration: 10mM) of the same target?
**A.** 0.927 ± 0.014

**Q.** For TMED2 (UniProt Q15363), which NP40-soluble protein abundance (concentration: 1mM) is on record?
**A.** 1.04 ± 0.18

**Q.** And the NP40-soluble protein abundance (concentration: 2mM)?
**A.** 1.01 ± 0.18

**Q.** And the NP40-soluble protein abundance (concentration: 4mM)?
**A.** 0.978 ± 0.13

**Q.** What about the NP40-soluble protein abundance (concentration: 6mM) of the same target?
**A.** 0.921 ± 0.2

**Q.** And the NP40-soluble protein abundance (concentration: 8mM)?
**A.** 1.05 ± 0.13

**Q.** And the NP40-soluble protein abundance (concentration: 10mM)?
**A.** 0.967 ± 0.13

**Q.** Which NP40-soluble protein abundance (concentration: 1mM) does the source give for ALG11 (UniProt Q2TAA5) here?
**A.** 0.919 ± 0.17

**Q.** And the NP40-soluble protein abundance (concentration: 2mM)?
**A.** 0.973 ± 0.16

**Q.** And the NP40-soluble protein abundance (concentration: 4mM)?
**A.** 0.982 ± 0.09

**Q.** What about the NP40-soluble protein abundance (concentration: 6mM) of the same target?
**A.** 0.915 ± 0.18

**Q.** What about the NP40-soluble protein abundance (concentration: 8mM) of the same target?
**A.** 0.972 ± 0.13

**Q.** What about the NP40-soluble protein abundance (concentration: 10mM) of the same target?
**A.** 1.01 ± 0.12

**Q.** What does the source list for UniProt Q15173 and related entries?
**A.** NP40-soluble protein abundance (concentration: 1mM): 1.05 ± 0.025; NP40-soluble protein abundance (concentration: 2mM): 1.04 ± 0.014; NP40-soluble protein abundance (concentration: 4mM): 0.9965 ± 0.0038; NP40-soluble protein abundance (concentration: 6mM): 1.03 ± 0.044; NP40-soluble protein abundance (concentration: 8mM): 0.927 ± 0.12; NP40-soluble protein abundance (concentration: 10mM): 0.997 ± 0.18

**Q.** With UniProt Q15118 and related entries as the target, how does the NP40-soluble protein abundance (concentration: 1mM) read?
**A.** 1.32 ± 0.1

**Q.** What about the NP40-soluble protein abundance (concentration: 2mM) of the same target?
**A.** 1.37 ± 0.18

**Q.** What about the NP40-soluble protein abundance (concentration: 4mM) of the same target?
**A.** 1.39 ± 0.2

**Q.** What about the NP40-soluble protein abundance (concentration: 6mM) of the same target?
**A.** 1.29 ± 0.1

**Q.** What about the NP40-soluble protein abundance (concentration: 8mM) of the same target?
**A.** 1.41 ± 0.25

**Q.** And the NP40-soluble protein abundance (concentration: 10mM)?
**A.** 1.34 ± 0.18

**Q.** Which NP40-soluble protein abundance (concentration: 1mM) does the source give for UniProt Q15046 and related entries here?
**A.** 1.03 ± 0.042

**Q.** What about the NP40-soluble protein abundance (concentration: 2mM) of the same target?
**A.** 0.942 ± 0.028

**Q.** And the NP40-soluble protein abundance (concentration: 4mM)?
**A.** 0.9131 ± 0.005

**Q.** What about the NP40-soluble protein abundance (concentration: 6mM) of the same target?
**A.** 0.941 ± 0.085

**Q.** And the NP40-soluble protein abundance (concentration: 8mM)?
**A.** 0.982 ± 0.05

**Q.** And the NP40-soluble protein abundance (concentration: 10mM)?
**A.** 0.92 ± 0.052

**Q.** UniProt Q16352 was tested. Which NP40-soluble protein abundance (concentration: 1mM) did it give?
**A.** 0.9978 ± 0.0016

**Q.** What about the NP40-soluble protein abundance (concentration: 2mM) of the same target?
**A.** 1.03 ± 0.011

**Q.** And the NP40-soluble protein abundance (concentration: 4mM)?
**A.** 1.136 ± 0.0049

**Q.** What about the NP40-soluble protein abundance (concentration: 6mM) of the same target?
**A.** 1.09 ± 0.096

**Q.** What about the NP40-soluble protein abundance (concentration: 8mM) of the same target?
**A.** 0.982 ± 0.086

**Q.** And the NP40-soluble protein abundance (concentration: 10mM)?
**A.** 0.999 ± 0.032

**Q.** Which NP40-soluble protein abundance (concentration: 1mM) does the source give for PDS5A (UniProt Q29RF7) here?
**A.** 0.94 ± 0.025

**Q.** And the NP40-soluble protein abundance (concentration: 2mM)?
**A.** 0.952 ± 0.0065

**Q.** What about the NP40-soluble protein abundance (concentration: 4mM) of the same target?
**A.** 0.9295 ± 0.0078

**Q.** What about the NP40-soluble protein abundance (concentration: 6mM) of the same target?
**A.** 0.95 ± 0.026

**Q.** What about the NP40-soluble protein abundance (concentration: 8mM) of the same target?
**A.** 0.935 ± 0.013

**Q.** And the NP40-soluble protein abundance (concentration: 10mM)?
**A.** 0.945 ± 0.0096

**Q.** Which results are given for UniProt Q1W6H9?
**A.** NP40-soluble protein abundance (concentration: 1mM): 1.14 ± 0.08; NP40-soluble protein abundance (concentration: 2mM): 1.16 ± 0.051; NP40-soluble protein abundance (concentration: 4mM): 1.08 ± 0.029; NP40-soluble protein abundance (concentration: 6mM): 1.15 ± 0.12; NP40-soluble protein abundance (concentration: 8mM): 1.1 ± 0.056; NP40-soluble protein abundance (concentration: 10mM): 1.11 ± 0.07

**Q.** For UniProt Q14680 and related entries, which NP40-soluble protein abundance (concentration: 1mM) is on record?
**A.** 1.21 ± 0.078

**Q.** What about the NP40-soluble protein abundance (concentration: 2mM) of the same target?
**A.** 1.3 ± 0.071

**Q.** And the NP40-soluble protein abundance (concentration: 4mM)?
**A.** 1.23 ± 0.055

**Q.** And the NP40-soluble protein abundance (concentration: 6mM)?
**A.** 1.51 ± 0.26

**Q.** And the NP40-soluble protein abundance (concentration: 8mM)?
**A.** 1.33 ± 0.13

**Q.** And the NP40-soluble protein abundance (concentration: 10mM)?
**A.** 1.44 ± 0.17

**Q.** Which NP40-soluble protein abundance (concentration: 1mM) does the source give for UniProt Q27J81 and related entries here?
**A.** 0.929 ± 0.054

**Q.** And the NP40-soluble protein abundance (concentration: 2mM)?
**A.** 0.958 ± 0.044

**Q.** And the NP40-soluble protein abundance (concentration: 4mM)?
**A.** 0.928 ± 0.058

**Q.** What about the NP40-soluble protein abundance (concentration: 6mM) of the same target?
**A.** 0.927 ± 0.033

**Q.** What about the NP40-soluble protein abundance (concentration: 8mM) of the same target?
**A.** 0.924 ± 0.056

**Q.** And the NP40-soluble protein abundance (concentration: 10mM)?
**A.** 0.937 ± 0.038

**Q.** Which results are given for UniProt Q14257 and related entries?
**A.** NP40-soluble protein abundance (concentration: 1mM): 0.979 ± 0.043; NP40-soluble protein abundance (concentration: 2mM): 0.961 ± 0.018; NP40-soluble protein abundance (concentration: 4mM): 0.935 ± 0.023; NP40-soluble protein abundance (concentration: 6mM): 0.974 ± 0.064; NP40-soluble protein abundance (concentration: 8mM): 0.959 ± 0.02; NP40-soluble protein abundance (concentration: 10mM): 0.921 ± 0.014

**Q.** For PPP2R5D (UniProt Q14738), which NP40-soluble protein abundance (concentration: 1mM) is on record?
**A.** 0.941 ± 0.055

**Q.** What about the NP40-soluble protein abundance (concentration: 2mM) of the same target?
**A.** 0.955 ± 0.024

**Q.** What about the NP40-soluble protein abundance (concentration: 4mM) of the same target?
**A.** 0.929 ± 0.037

**Q.** And the NP40-soluble protein abundance (concentration: 6mM)?
**A.** 0.968 ± 0.035

**Q.** What about the NP40-soluble protein abundance (concentration: 8mM) of the same target?
**A.** 0.925 ± 0.014

**Q.** What about the NP40-soluble protein abundance (concentration: 10mM) of the same target?
**A.** 0.93 ± 0.038

**Q.** Which results are given for ZNF638 (UniProt Q14966)?
**A.** NP40-soluble protein abundance (concentration: 1mM): 1.01 ± 0.02; NP40-soluble protein abundance (concentration: 2mM): 1.03 ± 0.021; NP40-soluble protein abundance (concentration: 4mM): 1.04 ± 0.017; NP40-soluble protein abundance (concentration: 6mM): 1.1 ± 0.015; NP40-soluble protein abundance (concentration: 8mM): 1.059 ± 0.0043; NP40-soluble protein abundance (concentration: 10mM): 1.093 ± 0.0014

Reference: the supplement of paper PMC6411743
